Reference: US20250345426A1, “METHODS FOR MAKING AND USING THERAPEUTIC CELLS” (THE REGENTS OF THE UNIVERSITY OF CALIFORNIA, priority 2022, published 2025)
For at least one compound, name, drawing or mass did not settle the structure.

Columns and labels:
Raji tumor xenografts = test: Raji xenograft in NSG mice treated with inhibitor-preconditioned rituximab CAR-T cells; assay type: in vivo; settings: Raji i.v., bioluminescence, vs vehicle control
Description: FIG. 2A-C. […] (A) Tumor signal (in photons/sec/cm^2/sr) in individual animals as quantified by bioluminescence imaging. […] Statistical significance was determined by Mann-Whitney U test with Holm-Sidak correction for multiple comparisons. * p<0.05, n.s. not statistically significant. (B) Kaplan-Meier survival curve (top) and table of median survival period in days (bottom). (C) Frequency of human CD45+EGFRt+ cell in peripheral blood collected from mice on day 8 after first dose of T-cell infusion. Statistical significance was determined by two-tailed Student's t test with Sidak correction for multiple comparisons. * p<0.05, ** p<0.01.
In vivo studies. Six- to eight-week-old NOD/SCID/IL-2Rγ^null (NSG) mice were obtained from UCLA Department of Radiation and Oncology. The protocol was approved by UCLA Institutional Animal Care and Used Committee. […] Details of the dose and timing of tumor injection, T-cell injection, and tumor re-challenge are indicated in the text and figures. Tumor progression/regression was monitored with an IVIS Illumina III LT Imaging System (PerkinElmer). Blood samples were harvested via retro-orbital bleeding 3 days post T-cell injection and every 10-13 days thereafter. Mice were euthanized at the humane endpoint. Bone marrow, spleen and liver were collected after euthanasia. […]

Raji lymphoma = Raji lymphoma model in NSG mice treated with inhibitor-treated Leu16 CAR-T cells; assay type: in vivo; settings: Raji i.v., two doses of inhibitor-treated Leu16 CAR-T cells, vs vehicle-treated
Description: FIG. 3A-G. Pharmacological modulation of Leu16 CAR-T cells modestly dampens tonic signaling while enhancing anti-tumor efficacy. (A) Pictorial representation of the correlation between tonic signaling-modulated rituximab CAR-T cells and in vivo anti-tumor efficacy. (B) Pictorial representation of pharmacological modulation strategy aimed to either increase or decrease Leu16 CAR tonic signaling; c-MYC (MYCi975) and SREBP (betulin) inhibition increased tonic signaling whereas mTORC1 (rapamycin) inhibition decreased tonic signaling in rituximab CAR-T cells. (C) % distribution of T-cell subtypes in CAR^+ T cells after 6 days of pharmacological modulation (left) and Tn/scm enrichment (right). The bars in FIG. 3C, right graph, represent data from, EGFRt, Leu16-28z (vehicle), Leu16-28z (MYCi975), Leu16-28z (Betulin), and Leu16-28z (Rapamycin), respectively, from left to right. (D) Activation and exhaustion marker expression by CAR^+ T cells in the absence of antigen stimulation after 6 days of pharmacological modulation. […] (F) Tumor signal (in photons/sec/cm2/sr) in individual animals as quantified by bioluminescence imaging. […]
In vivo studies. […] Tumor progression/regression was monitored with an IVIS Illumina III LT Imaging System (PerkinElmer). […]

## CO[C@H]1C[C@@H]2CC[C@@H](C)[C@@](O)(O2)C(=O)C(=O)N2CCCC[C@H]2C(=O)O[C@H]([C@H](C)C[C@@H]2CC[C@@H](O)[C@H](OC)C2)CC(=O)[C@H](C)/C=C(\C)[C@@H](O)[C@@H](OC)C(=O)[C@H](C)C[C@H](C)/C=C/C=C/C=C/1C [rapamycin, Rapamycin]
Raji tumor xenografts
  tumor outgrowth / tumor progression: delayed tumor outgrowth
Raji lymphoma
  in vivo functionality: tumor control and survival: superior in vivo functionality
